Test results reported in paper PMC7819943, “Rice protein-binding microarrays: a tool to detect cis-acting elements near promoter regions in rice”.
Some of the results follow.

By UniProt entry, the sequences of proteins in these tests, tags left out.
UniProt Q0JBA9, entry or part of it: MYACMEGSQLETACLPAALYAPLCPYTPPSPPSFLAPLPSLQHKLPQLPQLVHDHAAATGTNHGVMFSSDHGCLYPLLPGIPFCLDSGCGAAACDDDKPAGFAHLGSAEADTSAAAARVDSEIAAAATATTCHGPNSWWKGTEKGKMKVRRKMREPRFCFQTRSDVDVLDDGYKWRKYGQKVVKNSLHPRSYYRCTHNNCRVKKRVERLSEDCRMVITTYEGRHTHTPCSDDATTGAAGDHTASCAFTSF

Molecular target: OsWRKY34 (Oryza sativa, UniProt Q0JBA9 1-250)
Experiment: protein-binding microarray (RPBM); PBS, 2% BSA, 51.3 ng/ul salmon testes DNA, 50 uM zinc acetate, 200 nM TF, 25 C, 1 h; high values mean tight binding
Settings: protein: recombinant; tags: N-terminal polyhistidine and DsRed monomer fusion (pET32a); label: CyDye5-dUTP incorporated in the synthesized complementary strand; 3' TTTTT single-stranded linker to array surface; dsDNA, one strand shown
Procedure, shortened: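 Binding signal is defined as the fluorescence intensity of each feature in arbitrary units, read on an Axon 4000B scanner. Transcription factors with N-terminal polyhistidine and DsRed fusions came from E. coli BL21-CodonPlus and were purified on Ni–NTA. They were incubated at 200 nM for 1 h at 25 °C on a custom Agilent array that had been made double-stranded with Cy5-dUTP, with 50 µM zinc acetate present, and the array was washed.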

Sequence | binding signal
CCTGTCTGCTTGGCCTCACGGTGTCTCTGCGCGAATCAATCGGAGTCACCTAGTGCAG | 11400 fluorescence intensity (a.u.)
ACGCCCTCGCGCACGACGTCGCCGCTCACGTCAACGAGCTCGGAGTCACCTAGTGCAG | 8500 fluorescence intensity (a.u.)
AGTATTAAGATAGCTGCTCGGGTTTTTGGTCAACAATTCACGGAGTCACCTAGTGCAG | 10600 fluorescence intensity (a.u.)
TTGACCTCGAGTCCTGCTTGGCTTTTTGTGGGCGACACCGCGGAGTCACCTAGTGCAG | 9720 fluorescence intensity (a.u.)
AGTTAAAACCGCTACTCCACTCCTCCCATTGCATAATTTTCGGAGTCACCTAGTGCAG | 9400 fluorescence intensity (a.u.)
GCGCGGCGGCGGTGGGGTGGTAGTGGTGGTGGGTGGAATGCGGAGTCACCTAGTGCAG | 13500 fluorescence intensity (a.u.)
TGGGGTTATTATAGTTGGGCAGCGCTGACCGTGAGTCCGTCGGAGTCACCTAGTGCAG | 10600 fluorescence intensity (a.u.)
CAGTTGGCCTGTTTGTTTGTTGGTTGTGATTAATCTGTGACGGAGTCACCTAGTGCAG | 18800 fluorescence intensity (a.u.)
AGTACTCTCTCTTTGTATTAAATGAATTCTGAAGGATTTTCGGAGTCACCTAGTGCAG | 8970 fluorescence intensity (a.u.)
CCGCCCATGTCCACCGCCCACCGCCGGGCCGCCGCCTCCCCGGAGTCACCTAGTGCAG | 8240 fluorescence intensity (a.u.)
GGTATTTTTCTTTTATTTTTTATATTACTAGAAAAATACCCGGAGTCACCTAGTGCAG | 11900 fluorescence intensity (a.u.)
CTTCAGCAGCGAAGCCGGTGACAGTCACGCTTTTATTTACCGGAGTCACCTAGTGCAG | 8620 fluorescence intensity (a.u.)
GTCCGCTCCCGTTCGTTTTTTGGCGGCCGAGGCCCAACCCCGGAGTCACCTAGTGCAG | 9000 fluorescence intensity (a.u.)
GCCTTAATCATGCACTTGTTGTCTACTCCAATCGTATAGTCGGAGTCACCTAGTGCAG | 9970 fluorescence intensity (a.u.)
GCTGCCGTGGAGATTCTTGAGGAGGTTGGTGGTGGGGATGCGGAGTCACCTAGTGCAG | 8150 fluorescence intensity (a.u.)
TCCTCTACTTAACACCAAAGCCTCGGTCTGTGTCTGTCCGCGGAGTCACCTAGTGCAG | 8460 fluorescence intensity (a.u.)
ACGTGTAGCACGCGCTGGACTTATCTGCTTTGCTCGTTTCCGGAGTCACCTAGTGCAG | 10600 fluorescence intensity (a.u.)
GTCTAACTGCCAACATCTTCATATGGCCCATCAATGCTTTCGGAGTCACCTAGTGCAG | 10700 fluorescence intensity (a.u.)
AGCCAACCACACACAATGAACCATACCACAGTTACCACAGCGGAGTCACCTAGTGCAG | 10100 fluorescence intensity (a.u.)
ACGCGATCTCTCGGCCCATCAAGCACTCCACCTCTCACCACGGAGTCACCTAGTGCAG | 8270 fluorescence intensity (a.u.)
CCCTACATCACTCACTTCTACCTACTTTCTTAATAACCGTCGGAGTCACCTAGTGCAG | 8690 fluorescence intensity (a.u.)

A different layout for some results above:
Sequence,binding signal
CCTGTCTGCTTGGCCTCACGGTGTCTCTGCGCGAATCAATCGGAGTCACCTAGTGCAG,11400 fluorescence intensity (a.u.)
AGTATTAAGATAGCTGCTCGGGTTTTTGGTCAACAATTCACGGAGTCACCTAGTGCAG,10600 fluorescence intensity (a.u.)
TTGACCTCGAGTCCTGCTTGGCTTTTTGTGGGCGACACCGCGGAGTCACCTAGTGCAG,9720 fluorescence intensity (a.u.)
GCGCGGCGGCGGTGGGGTGGTAGTGGTGGTGGGTGGAATGCGGAGTCACCTAGTGCAG,13500 fluorescence intensity (a.u.)
TGGGGTTATTATAGTTGGGCAGCGCTGACCGTGAGTCCGTCGGAGTCACCTAGTGCAG,10600 fluorescence intensity (a.u.)
GGTATTTTTCTTTTATTTTTTATATTACTAGAAAAATACCCGGAGTCACCTAGTGCAG,11900 fluorescence intensity (a.u.)
CTTCAGCAGCGAAGCCGGTGACAGTCACGCTTTTATTTACCGGAGTCACCTAGTGCAG,8620 fluorescence intensity (a.u.)
GTCCGCTCCCGTTCGTTTTTTGGCGGCCGAGGCCCAACCCCGGAGTCACCTAGTGCAG,9000 fluorescence intensity (a.u.)
GCCTTAATCATGCACTTGTTGTCTACTCCAATCGTATAGTCGGAGTCACCTAGTGCAG,9970 fluorescence intensity (a.u.)
TCCTCTACTTAACACCAAAGCCTCGGTCTGTGTCTGTCCGCGGAGTCACCTAGTGCAG,8460 fluorescence intensity (a.u.)
ACGTGTAGCACGCGCTGGACTTATCTGCTTTGCTCGTTTCCGGAGTCACCTAGTGCAG,10600 fluorescence intensity (a.u.)
ACGCGATCTCTCGGCCCATCAAGCACTCCACCTCTCACCACGGAGTCACCTAGTGCAG,8270 fluorescence intensity (a.u.)
CCCTACATCACTCACTTCTACCTACTTTCTTAATAACCGTCGGAGTCACCTAGTGCAG,8690 fluorescence intensity (a.u.)

Continued:

Sequence | binding signal
TCCTCGCCTCCGAGCTCGACTTGGTCATCGTCTTCGCCTCCGGAGTCACCTAGTGCAG | 9970 fluorescence intensity (a.u.)
TCTATATTTGTTCGATATAAGTATTAGTAATGTATTCTTGCGGAGTCACCTAGTGCAG | 8380 fluorescence intensity (a.u.)
TTTTTTATTAATAGTCAAAATTAAAAATGTTTGACTTAACCGGAGTCACCTAGTGCAG | 8270 fluorescence intensity (a.u.)
CACCCTATTCTCTCTCTAGCCGGCAGCCACCCAAAATTTCCGGAGTCACCTAGTGCAG | 10600 fluorescence intensity (a.u.)
ATTGTATTCCTACTTGGACTCTTATTTTCTTTTCTAATTTCGGAGTCACCTAGTGCAG | 10300 fluorescence intensity (a.u.)
ACTGGTTGCATGCTTCTTTCGTACGAAGTGGTGAGTGGTGCGGAGTCACCTAGTGCAG | 8670 fluorescence intensity (a.u.)
GCATATCTCTCGCCAACTACTGGCCCATGCTTGCATGCAACGGAGTCACCTAGTGCAG | 9840 fluorescence intensity (a.u.)
GCCTAATCGTTTTCTTCGCGTTCTTAGACTGTAATTAAGCCGGAGTCACCTAGTGCAG | 8180 fluorescence intensity (a.u.)
GCCTCCTGTCGTTCTATATATTCCCTTGGCCATCGTCTCTCGGAGTCACCTAGTGCAG | 14100 fluorescence intensity (a.u.)
AGTTTTTGTGTACAACGTTTGACTGTCCGTCTTATATGAACGGAGTCACCTAGTGCAG | 8810 fluorescence intensity (a.u.)
GCTTTGTCGGATGCCCACATTTTTCCCATTGATAATATTACGGAGTCACCTAGTGCAG | 8610 fluorescence intensity (a.u.)
TACCGACATGTTTCCGTCCGTATTGTTCCGTTTCCGGTTTCGGAGTCACCTAGTGCAG | 9170 fluorescence intensity (a.u.)
ACTCCTCTGCATGCTTTTTTTTTCCCTTCAGTTTCAGTTGCGGAGTCACCTAGTGCAG | 11200 fluorescence intensity (a.u.)
CTCCACACGTGTCCCCGCGCGAGCTCATCTCGCGCGCATTCGGAGTCACCTAGTGCAG | 8680 fluorescence intensity (a.u.)
TGGAGGTGGGGAGGATGCGGGAGAGGGAGGTGATGATGGGCGGAGTCACCTAGTGCAG | 8790 fluorescence intensity (a.u.)
ATTCCTTTTACTTTTCTTTATTTTTTTAAAATTTGCATGTCGGAGTCACCTAGTGCAG | 8560 fluorescence intensity (a.u.)
CATGCGTTCTTCCCCGCGCCTCTGCAGTTCCGCACATCGCCGGAGTCACCTAGTGCAG | 11800 fluorescence intensity (a.u.)
GGCTGCTATATTGACCTTGCTCTTATTCCTTCATTCAATTCGGAGTCACCTAGTGCAG | 10500 fluorescence intensity (a.u.)
GCTCGCCACTGCTGCCGCTTCTCCTCGTCCTGTACAAAACCGGAGTCACCTAGTGCAG | 10400 fluorescence intensity (a.u.)
TTAGTTGTTTGACTTTTTTTCATAGTTAAACCTTTTAAAGCGGAGTCACCTAGTGCAG | 15300 fluorescence intensity (a.u.)
TGACAAAATCCGGCGCGGGCTTGAGATTGATATTTTTTTCCGGAGTCACCTAGTGCAG | 8100 fluorescence intensity (a.u.)
